Results are given in words; binding and its absence hold for the method and conditions named. In cells and extracts the contact can be indirect. Some binding calls cover weakened binding; strength is not graded here.
B1: SACK1B (formerly FAM83B) (protein, UniProt Q5T0W9 1-1011)
chain: METSSMLSSLNDECKSDNYIEPHYKEWYRVAIDILIEHGLEAYQEFLVQERVSDFLAEEEINYILKNVQKVAQSTAHGTDDSCDDTLSSGTYWPVESDVEAPNLDLGWPYVMPGLLGGTHIDLLFHPPRAHLLTIKETIRKMIKEARKVIALVMDIFTDVDIFKEIVEASTRGVSVYILLDESNFNHFLNMTEKQGCSVQRLRNIRVRTVKGQDYLSKTGAKFHGKMEQKFLLVDCQKVMYGSYSYMWSFEKAHLSMVQIITGQLVESFDEEFRTLYARSCVPSSFAQEESARVKHGKALWENGTYQHSVSSLASVSSQRNLFGRQDKIHKLDSSYFKNRGIYTLNEHDKYNIRSHGYKPHFVPNFNGPNAIRQFQPNQINENWKRHSYAGEQPETVPYLLLNRALNRTNNPPGNWKKPSDSLSVASSSREGYVSHHNTPAQSFANRLAQRKTTNLADRNSNVRRSFNGTDNHIRFLQQRMPTLEHTTKSFLRNWRIESYLNDHSEATPDSNGSALGDRFEGYDNPENLKANALYTHSRLRSSLVFKPTLPEQKEVNSCTTGSSNSTIIGSQGSETPKEVPDTPTNVQHLTDKPLPESIPKLPLQSEAPKMHTLQVPENHSVALNQTTNGHTESNNYIYKTLGVNKQTENLKNQQTENLLKRRSFPLFDNSKANLDPGNSKHYVYSTLTRNRVRQPEKPKEDLLKSSKSMHNVTHNLEEDEEEVTKRNSPSGTTTKSVSIAALLDVNKEESNKELASKKEVKGSPSFLKKGSQKLRSLLSLTPDKKENLSKNKAPAFYRLCSSSDTLVSEGEENQKPKKSDTKVDSSPRRKHSSSSNSQGSIHKSKEDVTVSPSQEINAPPDENKRTPSPGPVESKFLERAGDASAPRFNTEQIQYRDSREINAVVTPERRPTSSPRPTSSELLRSHSTDRRVYSRFEPFCKIESSIQPTSNMPNTSINRPEIKSATMGNSYGRSSPLLNYNTGVYRSYQPNENKFRGFMQKFGNFIHKNK
B2: SACK1H (formerly FAM83H) (protein, UniProt Q6ZRV2 1-1179)
chain: MARRSQSSSQGDNPLAPGYLPPHYKEYYRLAVDALAEGGSEAYSRFLATEGAPDFLCPEELEHVSRHLRPPQYVTREPPEGSLLDVDMDGSSGTYWPVNSDQAVPELDLGWPLTFGFQGTEVTTLVQPPPPDSPSIKDEARRMIRSAQQVVAVVMDMFTDVDLLSEVLEAAARRVPVYILLDEMNAQHFLDMADKCRVNLQHVDFLRVRTVAGPTYYCRTGKSFKGHVKEKFLLVDCAVVMSGSYSFMWSFEKIHRSLAHVFQGELVSSFDEEFRILFAQSEPLVPSAAALARMDAYALAPYAGAGPLVGVPGVGAPTPFSFPKRAHLLFPPPREEGLGFPSFLDPDRHFLSAFRREEPPRMPGGALEPHAGLRPLSRRLEAEAGPAGELAGARGFFQARHLEMDAFKRHSFATEGAGAVENFAAARQVSRQTFLSHGDDFRFQTSHFHRDQLYQQQYQWDPQLTPARPQGLFEKLRGGRAGFADPDDFTLGAGPRFPELGPDGHQRLDYVPSSASREVRHGSDPAFAPGPRGLEPSGAPRPNLTQRFPCQAAARPGPDPAPEAEPERRGGPEGRAGLRRWRLASYLSGCHGEDGGDDGLPAPMEAEAYEDDVLAPGGRAPAGDLLPSAFRVPAAFPTKVPVPGPGSGGNGPEREGPEEPGLAKQDSFRSRLNPLVQRSSRLRSSLIFSTSQAEGAAGAAAATEKVQLLHKEQTVSETLGPGGEAVRSAASTKVAELLEKYKGPARDPGGGAGAITVASHSKAVVSQAWREEVAAPGAVGGERRSLESCLLDLRDSFAQQLHQEAERQPGAASLTAAQLLDTLGRSGSDRLPSRFLSAQSHSTSPQGLDSPLPLEGSGAHQVLHNESKGSPTSAYPERKGSPTPGFSTRRGSPTTGFIEQKGSPTSAYPERRGSPVPPVPERRSSPVPPVPERRGSLTLTISGESPKAGPAEEGPSGPMEVLRKGSLRLRQLLSPKGERRMEDEGGFPVPQENGQPESPRRLSLGQGDSTEAATEERGPRARLSSATANALYSSNLRDDTKAILEQISAHGQKHRAVPAPSPGPTHNSPELGRPPAAGVLAPDMSDKDKCSAIFRSDSLGTQGRLSRTLPASAEERDRLLRRMESMRKEKRVYSRFEVFCKKEEASSPGAGEGPAEEGTRDSKVGKFVPKILGTFKSKK
B3: SACK1D (formerly FAM83D), Q9H4H8 1-585 (protein)
chain: MALLSEGLDEVPAACLSPCGPPNPTELFSESRRLALEELVAGGPEAFAAFLRRERLARFLNPDEVHAILRAAERPGEEGAAAAAAAEDSFGSSHDCSSGTYFPEQSDLEPPLLELGWPAFYQGAYRGATRVETHFQPRGAGEGGPYGCKDALRQQLRSAREVIAVVMDVFTDIDIFRDLQEICRKQGVAVYILLDQALLSQFLDMCMDLKVHPEQEKLMTVRTITGNIYYARSGTKIIGKVHEKFTLIDGIRVATGSYSFTWTDGKLNSSNLVILSGQVVEHFDLEFRILYAQSKPISPKLLSHFQSSNKFDHLTNRKPQSKELTLGNLLRMRLARLSSTPRKADLDPEMPAEGKAERKPHDCESSTVSEEDYFSSHRDELQSRKAIDAATQTEPGEEMPGLSVSEVGTQTSITTACAGTQTAVITRIASSQTTIWSRSTTTQTDMDENILFPRGTQSTEGSPVSKMSVSRSSSLKSSSSVSSQGSVASSTGSPASIRTTDFHNPGYPKYLGTPHLELYLSDSLRNLNKERQFHFAGIRSRLNHMLAMLSRRTLFTENHLGLHSGNFSRVNLLAVRDVALYPSYQ

Chains of the proteins cited; added tags and fusions are not shown.
UniProt P48729: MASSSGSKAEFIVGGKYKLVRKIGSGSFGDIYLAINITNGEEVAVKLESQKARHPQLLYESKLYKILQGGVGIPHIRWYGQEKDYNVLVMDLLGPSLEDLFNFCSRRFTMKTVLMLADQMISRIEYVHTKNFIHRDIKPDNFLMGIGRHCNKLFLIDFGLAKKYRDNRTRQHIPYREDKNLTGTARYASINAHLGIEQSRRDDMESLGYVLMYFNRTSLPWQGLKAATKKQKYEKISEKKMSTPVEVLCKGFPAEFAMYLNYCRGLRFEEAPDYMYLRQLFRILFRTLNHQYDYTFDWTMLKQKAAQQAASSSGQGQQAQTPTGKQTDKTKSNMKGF
UniProt Q8NEG4: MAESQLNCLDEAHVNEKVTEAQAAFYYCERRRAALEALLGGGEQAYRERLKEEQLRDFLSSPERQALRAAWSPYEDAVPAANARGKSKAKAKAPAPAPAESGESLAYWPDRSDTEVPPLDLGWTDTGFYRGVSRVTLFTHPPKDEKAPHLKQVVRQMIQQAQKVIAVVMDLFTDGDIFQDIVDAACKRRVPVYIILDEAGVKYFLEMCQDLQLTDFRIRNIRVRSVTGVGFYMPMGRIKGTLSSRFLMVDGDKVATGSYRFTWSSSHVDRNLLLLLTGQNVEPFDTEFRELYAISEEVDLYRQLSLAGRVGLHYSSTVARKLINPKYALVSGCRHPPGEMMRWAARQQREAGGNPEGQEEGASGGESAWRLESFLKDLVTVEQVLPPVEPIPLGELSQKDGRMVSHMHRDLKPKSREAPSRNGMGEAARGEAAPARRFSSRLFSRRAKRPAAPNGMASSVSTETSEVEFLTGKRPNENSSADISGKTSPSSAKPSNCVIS

Legend:
[1] = target: Ser/Thr protein kinase CK1α (human (endogenous in DLD1, U2OS, A549, TOV-21G)) (UniProt P48729); assay: co-IP; anti-CK1α antibody (sheep, SA527) IP of endogenous CK1α from extracts of asynchronous DLD1, U2OS, A549 and TOV-21G cells; NP-40 lysis buffer, 16 h at 4 °C, protein G Sepharose; IgG IP as negative control; immunoblot
[2] = target: Ser/Thr protein kinase CK1α (human (endogenous in DLD1, U2OS, A549, TOV-21G)), P48729; assay: as above; conditions: remark: other sources report otherwise

Row | Molecule | binding [1] | binding [2]
1 | SACK1F (formerly FAM83F) (from UniProt Q8NEG4 1-500) | binds | –
2 | B1 | binds | –
3 | B2 | binds | –
4 | B3 | – | no binding
